Data on four molecules can be found in PMC9321043, “Synthesis, Structure–Activity Relationships, and Parasitological Profiling of Brussonol Derivatives as New Plasmodium falciparum Inhibitors” (Pharmaceuticals, 2022).

Bounds are passed on as bounds.

For one data set, the system named is HepG2 cells. The experiment in a line: Cytotoxic test on immortalized cells, MTT. In kind it is cell-based, human. To be noted: SI = IC50^HepG2/IC50^Pf. Here is the method:
The cytotoxic effects of brussonol and derivatives were evaluated against the human hepatocellular carcinoma cell line (HepG2). The cells were cultivated in an RPMI medium supplemented with 10% (v/v) fetal bovine serum and 25 µg/mL gentamicin. Conditions for the cultivation of these cells were 37 °C and 5% CO2, and every 2 days the supplemented medium was changed.
For experimental procedures, the cells were trypsinized and transferred to a 96-well plate at 30,000 cells per well (180 µL). The plate was incubated at 37 °C and 5% CO2 to allow cell adhesion. Next, 20 µL of serial dilutions of the compounds tested were added to the plate, with a range of concentrations tested from 400–6.25 µM. Cells without any compounds were used as a positive control for growing and the wells containing only medium were used as negative controls. The plate was incubated for 72 h at 37 °C and 5% CO2. After incubation, a microscope was used to determine the highest compound concentration to be used in the experiments (highest concentration without precipitation). […] The absorbance, which is proportional to the number of viable cells, was determined using a SpectraMAX Plus 384 plate reader (Molecular Devices Corp., Sunnyvale, CA) (λ = 570 nm). […]
After the IC50 against the parasite and the human cell line is determined, it is possible to calculate the SI. It is calculated as the formula below:SI = IC50^HepG2/IC50^Pf. […]

For data set [1], the system named is P. falciparum 3D7^r_MMV848 strain. The experiment in a line: Resistance assessment, 3D7r-MMV848 strain. In kind it is cell-based, Plasmodium falciparum.
Data set [2] relates to P. falciparum TM90C6B strain. Put plainly: Resistance assessment, TM90C6B strain. It is filed as cell-based, Plasmodium falciparum.
The test system of a further data set is P. falciparum K1 strain. The experiment in a line: Resistance assessment, K1 strain. It is filed as cell-based, Plasmodium falciparum.
Data set [3] has as its system P. falciparum (3D7 strain). Put plainly: In vitro antiplasmodial activity, P. falciparum blood-stage parasites, SYBR Green I. It is filed as cell-based, Plasmodium falciparum. To be noted: RI = IC50^resistant strain/IC50^3D7. The procedure: The P. falciparum strains were cultivated in human blood cells (hRBC) O^+, while P. knowlesi was cultivated in rhesus red blood cells (rRBC) as described. P. falciparum complete RPMI (consisting of RPMI-1640, supplemented with 0.2% NaHCO3, 25 mM HEPES (pH 7.4), 11 mM D-glucose, 10 mg/L hypoxanthine, 25 mg/L gentamicin, and 0.5% (m/v) AlbuMAX II). The parasitemias of these cultures were maintained below 10% with 2.5% hematocrit. P. knowlesi complete RPMI (consisting of RPMI-1640 supplemented with 25 mM HEPES, […] hypoxanthine, 0.26% NaHCO3, 10 mg/L gentamicin, and 1% Albumax II). This culture was maintained with RBCs up to 5% hematocrit. The culture medium was changed daily, and all cultures were maintained under a 90% N2/5% CO2/5% O2 gas mixture at 37 °C. All compounds were purchased from Sigma-Aldrich (Cotia, Brazil).
The antiplasmodial activity of brussonol and derivatives was evaluated against P. falciparum blood parasites 3D7(chloroquine-sensitive). The parasites were synchronized through sterile 5% (m/v) D-sorbitol treatment over 10 min at 37 °C for the enrichment of ring stages. Centrifugation 600× g over 5 min was used to pellet the cultures. The parasitemia was determined by microscope analysis of thin blood smears stained with Giemsa 10% (v/v) after fixation with methanol. The initial parasitemia was calculated for 1000 red blood cells (RBCs), and cultures were diluted to 0.5% parasitemia and 2% hematocrit by the addition of the appropriate volumes of blood and medium. A total of 180 µL aliquots of parasites were distributed into 96-well plates followed by the addition of 20 µL of previously prepared aliquots of ten-fold concentrated compounds, the range of concentrations tested was 10–1.53 µM. Negative and positive control wells, which correspond to non-parasitized erythrocytes and parasite cultures in the absence of compounds, were set in parallel. […] Once completed incubation, the culture medium was removed, and the cells were resuspended in 100 µL PBS (116 mM NaCl, 10 mM NaH2PO4, 3 mM KH2PO4) and lysed with 100 µL lysis buffer (20 mM Tris base, 5 mM EDTA, 0.0008% (v/v) Triton X-100, 0.008% (m/v) saponin, pH 8.0) containing 0.002% (v/v) SYBR Green I. Plates were incubated for 30 min at room temperature, and a SpectraMAX Gemini EM plate reader (Molecular Devices Corp., Sunnyvale, CA) was used to determine the fluorescence corresponding to parasitic density (excitation at 485 nm, emission at 535 nm). The half-maximal inhibitory concentration (IC50^Pf) was determined by non-linear regression analysis of the resulting concentration–response curve using the software GraphPad Prism version 8.0.1 for Windows, GraphPad Software, San Diego, California USA, www.graphpad.com, accessed on 3 March 2022”.

Another data set has as its system P. falciparum Dd2 strain. The experiment in a line: Resistance assessment, Dd2 strain. In kind it is cell-based, Plasmodium falciparum.
Where [4] appears, read: RI = IC50^resistant strain/IC50^3D7, listed as Brussonol.
Where [5] appears, read: RI = IC50^resistant strain/IC50^3D7, listed as brussonol.
Setting [6] is: RI = IC50^resistant strain/IC50^3D7.

Molecule `CC(C)c1cc2c(c(O)c1O)C[C@@]13CCCC(C)(C)[C@@H]1C[C@@H]2O3` [Compound 1, brussonol] had an SI in the data set on HepG2 cells of 4. Moreover, the RI in data set [1] (setting [4]) was below 5; in data set [1] (setting [5]), 1; in data set [2] (setting [4]) it was below 5; in data set [2] (setting [5]), 0.5; in the data set on P. falciparum K1 strain (setting [4]), below 5; in the data set with P. falciparum K1 strain (setting [5]), 0.5. The RI is listed as 1 in data set [3], below 5 with P. falciparum Dd2 strain (setting [4]) and 0.5 in the data set on P. falciparum Dd2 strain (setting [5]).
`C[C@H]1[C@H](OC(=O)CCC(=O)O)O[C@@H]2O[C@@]3(C)CC[C@H]4[C@H](C)CC[C@@H]1[C@@]24OO3` [artesunate]: the RI in data set [1] (setting [6]) was found to be 2; in data set [2] (setting [6]), 1; with P. falciparum K1 strain (setting [6]) it was 1; in data set [3], 1; in the data set with P. falciparum Dd2 strain (setting [6]), 1.
Take `O=C1C(O)=C([C@H]2CC[C@H](c3ccc(Cl)cc3)CC2)C(=O)c2ccccc21` [atovaquone, reference compound]: the values for the RI in data set [2] (setting [6]) and in data set [3] were 4285 and 1, respectively.
Take `CCc1nc(N)nc(N)c1-c1ccc(Cl)cc1` [pyrimethamine]: the RI with P. falciparum K1 strain (setting [6]) is reported as above 166; in data set [3], 1; with P. falciparum Dd2 strain (setting [6]), above 166.
